Laboratory results from article PMC7482815.
No constants are given. Whether binding was seen depends on the method and setting. Binding seen in cells or lysates may run through a third protein. Some binding calls cover weakened binding; strength is not graded here.

By UniProt entry, the sequences of proteins in these tests, tags left out. Where a name states a change or a piece, a line headed by the entry shows the natural chain unless it says otherwise. Chains listed by the source or under a name are the forms on record and can include a tag or linker. Residues count along the entry.
UniProt Q93009: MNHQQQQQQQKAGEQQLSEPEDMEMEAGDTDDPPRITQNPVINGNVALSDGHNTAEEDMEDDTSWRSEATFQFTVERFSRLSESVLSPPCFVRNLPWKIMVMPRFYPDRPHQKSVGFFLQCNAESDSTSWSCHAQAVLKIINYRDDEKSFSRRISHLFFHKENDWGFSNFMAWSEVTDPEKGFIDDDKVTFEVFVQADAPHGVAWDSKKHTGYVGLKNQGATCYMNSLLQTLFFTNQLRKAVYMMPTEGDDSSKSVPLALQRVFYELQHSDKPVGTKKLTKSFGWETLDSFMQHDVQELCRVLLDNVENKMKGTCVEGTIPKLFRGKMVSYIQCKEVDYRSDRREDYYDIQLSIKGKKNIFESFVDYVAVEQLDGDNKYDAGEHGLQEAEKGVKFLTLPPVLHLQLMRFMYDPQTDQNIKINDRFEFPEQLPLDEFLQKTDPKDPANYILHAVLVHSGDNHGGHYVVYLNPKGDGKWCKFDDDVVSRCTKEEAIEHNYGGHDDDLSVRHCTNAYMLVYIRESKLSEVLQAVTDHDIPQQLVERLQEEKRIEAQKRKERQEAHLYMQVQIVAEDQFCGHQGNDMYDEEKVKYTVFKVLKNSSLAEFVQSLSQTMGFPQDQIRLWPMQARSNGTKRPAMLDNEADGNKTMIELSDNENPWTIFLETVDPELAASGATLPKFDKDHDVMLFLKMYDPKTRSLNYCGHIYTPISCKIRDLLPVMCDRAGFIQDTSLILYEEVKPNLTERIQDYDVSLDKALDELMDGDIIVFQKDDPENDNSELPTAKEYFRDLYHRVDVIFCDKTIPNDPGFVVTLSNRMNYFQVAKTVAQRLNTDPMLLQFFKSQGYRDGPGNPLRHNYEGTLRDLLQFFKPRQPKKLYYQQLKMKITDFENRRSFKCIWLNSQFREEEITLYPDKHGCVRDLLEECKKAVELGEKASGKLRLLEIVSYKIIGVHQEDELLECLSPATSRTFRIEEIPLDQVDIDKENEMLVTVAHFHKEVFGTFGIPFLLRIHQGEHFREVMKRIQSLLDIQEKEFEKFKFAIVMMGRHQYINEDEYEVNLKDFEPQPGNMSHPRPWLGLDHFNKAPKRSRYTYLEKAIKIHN
FLAG-tagged MATH domain of USP7: residues 68-195 of Q93009
UniProt P60953: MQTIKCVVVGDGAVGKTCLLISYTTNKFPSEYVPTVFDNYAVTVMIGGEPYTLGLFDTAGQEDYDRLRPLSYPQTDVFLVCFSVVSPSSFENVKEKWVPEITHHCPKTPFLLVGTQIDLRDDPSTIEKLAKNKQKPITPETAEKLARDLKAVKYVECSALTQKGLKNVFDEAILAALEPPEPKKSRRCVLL

T1: epithelial cell transforming sequence 2 (ECT2), endogenous (human (endogenous in MCF-7, HeLa)) (UniProt Q9H8V3)
T1 sequence: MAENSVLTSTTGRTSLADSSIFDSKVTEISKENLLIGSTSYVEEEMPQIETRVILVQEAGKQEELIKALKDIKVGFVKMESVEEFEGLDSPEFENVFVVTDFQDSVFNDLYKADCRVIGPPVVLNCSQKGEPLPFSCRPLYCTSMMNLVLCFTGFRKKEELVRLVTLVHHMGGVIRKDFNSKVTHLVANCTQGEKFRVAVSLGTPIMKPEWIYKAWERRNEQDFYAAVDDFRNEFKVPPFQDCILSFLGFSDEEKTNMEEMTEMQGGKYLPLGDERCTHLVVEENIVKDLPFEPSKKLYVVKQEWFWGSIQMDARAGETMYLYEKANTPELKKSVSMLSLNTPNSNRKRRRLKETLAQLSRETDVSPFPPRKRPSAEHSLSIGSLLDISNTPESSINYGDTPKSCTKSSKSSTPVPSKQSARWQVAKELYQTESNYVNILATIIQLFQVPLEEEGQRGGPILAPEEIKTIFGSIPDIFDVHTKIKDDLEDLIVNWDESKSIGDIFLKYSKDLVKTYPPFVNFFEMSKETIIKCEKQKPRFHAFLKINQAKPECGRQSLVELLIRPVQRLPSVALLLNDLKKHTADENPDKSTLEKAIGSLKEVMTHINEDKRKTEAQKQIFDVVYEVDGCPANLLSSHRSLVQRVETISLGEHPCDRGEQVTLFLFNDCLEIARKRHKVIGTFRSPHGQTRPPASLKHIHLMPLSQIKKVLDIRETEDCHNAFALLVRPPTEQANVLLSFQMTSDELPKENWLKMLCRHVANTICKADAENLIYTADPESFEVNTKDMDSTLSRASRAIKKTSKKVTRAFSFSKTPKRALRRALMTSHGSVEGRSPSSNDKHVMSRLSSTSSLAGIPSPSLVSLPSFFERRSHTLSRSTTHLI

B1: epithelial cell transforming sequence 2 (ECT2), endogenous (protein, UniProt Q9H8V3-4 1-883)
chain: T1 sequence

Assays:
[1] = target: T1, epithelial cell transforming sequence 2 (ECT2), endogenous (human (endogenous in MCF-7, HeLa)); test: co-IP; endogenous proteins, whole cell lysates of MCF-7 and HeLa cells in NETN buffer (50 mM Tris-HCl pH 8.0, 150 mM NaCl, 0.2% Nonidet P-40, 2 mM EDTA), antibodies against USP7 or ECT2, protein G magnetic beads, 4 °C, immunoblot
[2] = target: ubiquitin-specific protease USP7, endogenous (human (endogenous in MCF-7, HeLa, U2OS)) (UniProt Q93009); test: as above
[3] = target: T1, epithelial cell transforming sequence 2 (ECT2), endogenous (human (endogenous in MCF-7, HeLa)); test: co-IP; cytosolic fraction of MCF-7 cells (nuclear/cytosol separation kit), endogenous proteins
[4] = target: T1, epithelial cell transforming sequence 2 (ECT2), endogenous (human (endogenous in MCF-7, HeLa)); test: co-IP; nuclear fraction of MCF-7 cells (nuclear/cytosol separation kit), endogenous proteins
[5] = target: FLAG-tagged MATH domain of USP7 (UniProt Q93009); test: co-IP; whole cell lysates of HeLa cells transfected with ECT2/wt, ECT2/GEF^mt or FLAG-tagged deletion mutants of USP7 or ECT2; the partner detected by immunoblot

Row | Molecule | binding [1] | binding [2] | binding [3] | binding [4] | binding [5]
1 | cell division cycle 42 (CDC42), endogenous (from UniProt P60953 1-191) | binds | no binding | – | – | –
2 | ubiquitin-specific protease USP7, endogenous (from UniProt Q93009 1-1102) | binds | – | no binding (condition: cytosolic fraction of MCF-7 cells) | binds | –
3 | B1 | – | binds | – | – | no binding
